In PubChem BioAssay AID220 (DTP/NCI, 2004):
The list shows only some results of the screen, not a fair sample: it gathers tests that were run many times, whatever their T/C, doses with no T/C, and many T/C values between a quarter and a half above the control. Other doses and runs of a compound stand elsewhere. T/C: endpoint of the treated group in % of that of the vehicle group. Schedules are NCI's codes, read here as Q, the interval in days (D) or hours (H), X, the number of doses. Some doses have a count of surviving animals in place of a T/C: the source files T/C as zero there, which appears to mark a toxic dose or a test without result, not a measured value. Survivors were counted at the toxicity check, usually on the fifth day, unless a day is given; later deaths do not show. Some entries were tested several times; the values are given in rising order.

System: CD8F1 mice, subcutaneous mammary adenocarcinoma, T/C%
Experiment: NCI In Vivo Anticancer Drug Screen. Data for tumor model Mammary Adenocarcinoma CD8F1 (subcutaneous) in CD8F1
Conditions: higher T/C = larger tumour
How it was run: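 Mice carrying transplanted tumors received test compound, and survival or tumor size was recorded. Each value is the treated-group measurement divided by the corresponding measurement in vehicle-dosed controls.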

[1] = T/C endpoint: median tumor weight change, dose: 500.0 mg/kg/injection, schedule: Q01DX001 (ip), vehicle: saline with Tween-80

SMILES: CCOC(=O)C1=C(C#N)C2(CCC(OCc3ccccc3)CC2)C(=O)O1 (stereo not drawn)
- survivor count (T/C endpoint: median tumor weight change, dose: 2000.0 mg/kg/injection, schedule: Q01DX001 (ip), vehicle: suspension in saline): 0 of 10 on day 31

SMILES: CCNC(C)(C)C(SSS)c1ccco1 (stereo not drawn)
- survivor count [1]: 6 of 10 on day 32

SMILES: Nc1ncnc2c1ccn2C1OC(CO)C(O)C1O (stereo not drawn)
- T/C (T/C endpoint: mean tumor weight, dose: 2.0 mg/kg/injection, schedule: Q07DX005 (ip), vehicle: saline, evaluated on day 36): 130 % of control
- T/C (T/C endpoint: median tumor weight (est.), dose: 0.5 mg/kg/injection, schedule: Q07DX005 (ip), vehicle: Klucel (hydroxypropylcellulose) (HPC), evaluated on day 30): 149 % of control
- survivor count (T/C endpoint: median tumor weight (est.), dose: 16.0 mg/kg/injection, schedule: Q07DX005 (ip), vehicle: Klucel (hydroxypropylcellulose) (HPC)): 0 of 10 on day 30

SMILES: O=C1CC2(C(=O)N1CN1CCCCC1)c1ccccc1-c1ccccc12
- T/C (T/C endpoint: median tumor weight (est.), dose: 50.0 mg/kg/injection, schedule: Q07DX005 (ip), vehicle: Klucel (hydroxypropylcellulose) (HPC), evaluated on day 30): 149 % of control

SMILES: Nc1n[nH]c(N)n1
- T/C (T/C endpoint: mean tumor weight, dose: 50.0 mg/kg/injection, schedule: Q01DX009 (ip), vehicle: saline, evaluated on day 25): 126 % of control

SMILES: CC(C)NC(=O)OCc1c(COC(=O)NC(C)C)c(-c2ccc(Cl)c(Cl)c2)n2c1CCC2
- survivor count (T/C endpoint: median tumor weight (est.), dose: 200.0 mg/kg/injection, schedule: Q07DX005 (ip), vehicle: distilled water + Tween-80): 2 of 10 on day 30
- survivor count (T/C endpoint: median tumor weight (est.), dose: 400.0 mg/kg/injection, schedule: Q07DX005 (ip), vehicle: distilled water + Tween-80): 0 of 10 on day 30

SMILES: CC[C@H]1CN2CCc3cc(OC)c(OC)cc3[C@@H]2C[C@@H]1C[C@H]1NCCc2cc(O)c(OC)cc21
- T/C (T/C endpoint: median tumor weight (est.), dose: 1.0 mg/kg/injection, schedule: Q07DX005 (ip), vehicle: saline, evaluated on day 30): 135 % of control

SMILES: CNC(=O)n1c(N)nc(-c2ccccc2)c1-c1ccccc1
- survivor count (T/C endpoint: median tumor weight change, dose: 250.0 mg/kg/injection, schedule: Q01DX001 (ip), vehicle: saline with Tween-80): 1 of 10 on day 38
- survivor count [1]: 0 of 10 on day 38

SMILES: Cc1c2c(c(O)c3c(O)cccc13)C(=O)C1(O)C(O)=C(C(=O)NCNc3ccc(C(N)=O)cn3)C(=O)C(N(C)C)C1C2 (stereo not drawn)
- survivor count (T/C endpoint: median tumor weight change, dose: 250.0 mg/kg/injection, schedule: Q01DX001 (ip), vehicle: saline): 6 of 10 on day 34

SMILES: CCCCC(=O)OCC(=O)[C@]1(O)Cc2c(O)c3c(c(O)c2[C@@H](OC2CC(NC(=O)C(F)(F)F)C(O)C(C)O2)C1)C(=O)c1c(OC)cccc1C3=O (stereo partly drawn)
- survivor count (T/C endpoint: median tumor weight change, dose: 450.0 mg/kg/injection, schedule: Q01DX001 (ip), vehicle: clinical formulation): 4 of 10 on day 28 and 5 of 10 on day 29
- survivor count (T/C endpoint: median tumor weight change, dose: 600.0 mg/kg/injection, schedule: Q01DX001 (ip), vehicle: clinical formulation): 2 of 10 on day 29

SMILES: CC(=O)Nc1cscc1NC(C)=O
- survivor count (T/C endpoint: median tumor weight change, dose: 2000.0 mg/kg/injection, schedule: Q01DX001 (ip), vehicle: saline with Tween-80): 3 of 10 on day 29 and 5 of 10 on day 36

SMILES: NC(CCC(=O)NC(CS)C(=O)NCC(=O)O)C(=O)O (stereo not drawn)
- T/C (T/C endpoint: median tumor weight change, dose: 500.0 mg/kg/injection, schedule: Q01DX001 (ip), vehicle: saline, evaluated on day 26): 130 % of control

SMILES: OCC1OC(n2cnc3c(Cl)ncnc32)C(O)C1O (stereo not drawn)
- T/C (T/C endpoint: median tumor weight (est.), dose: 50.0 mg/kg/injection, schedule: Q07DX005 (ip), vehicle: saline, evaluated on day 30): 130 % of control

SMILES: Cc1c(N)nc(C(CC(N)=O)NCC(N)C(N)=O)nc1C(=O)NC(C(=O)NC(C)C(O)CC(=O)NC(C(=O)NC(OC1OC(C)C(N)C(O)C1O)C(O)c1nc(-c2nc(C(=O)NCCCC(N)CC(=O)NCCCNCCCCN)cs2)cs1)C(C)O)C(OC1OC(CO)C(O)C(O)C1OC1OC(CO)C(O)C(OC(N)=O)C1O)c1cnc[nH]1 (stereo not drawn)
- survivor count (T/C endpoint: median tumor weight (est.), dose: 16.0 mg/kg/injection, schedule: Q07DX005 (ip), vehicle: saline): 4 of 10 on day 30
- survivor count (T/C endpoint: median tumor weight (est.), dose: 32.0 mg/kg/injection, schedule: Q07DX005 (ip), vehicle: saline): 0 of 10 on day 30
- survivor count (T/C endpoint: median tumor weight (est.), dose: 64.0 mg/kg/injection, schedule: Q07DX005 (ip), vehicle: saline): 0 of 10 on day 30

SMILES: CC(=O)NC(Cc1ccc(F)cc1)C(=O)O (stereo not drawn)
- T/C (T/C endpoint: median tumor weight (est.), dose: 400.0 mg/kg/injection, schedule: Q07DX005 (ip), vehicle: saline with Tween-80, evaluated on day 30): 125 % of control
- survivor count (T/C endpoint: median tumor weight (est.), dose: 1600.0 mg/kg/injection, schedule: Q07DX005 (ip), vehicle: saline with Tween-80): 2 of 10 on day 30
